Reference: article PMC3303851, “Structural Basis of Ets1 Cooperative Binding to Widely Separated Sites on Promoter DNA” (PLoS ONE, 2012)
No constants are given. Whether binding was seen depends on the method and setting. Some results given as binding are weak or reduced against the parent protein; the word gives no strength.

Target: Ets1 (residues 280–441) (UniProt P14921)
Experiment: crystal structure; Ets1 280-441 mixed 1:1.05 with TCRα promoter dsDNA; (Ets1)2•2DNA crystals grown at 295 K, space group P2_(1), refined at 3.1 Å; asymmetric unit holds an Ets1 homodimer and two pieces of dsDNA; both purified

- binding: binds
B1: Ets1 (residues 280–441) (domain or fragment, UniProt P14921 280-441, looked up)
chain: VPSYDSFDSEDYPAALPNHKPKGTFKDYVRDRADLNKDKPVIPAAALAGYTGSGPIQLWQFLLELLTDKSCQSFISWTGDGWEFKLSDPDEVARRWGKRKNKPKMNYEKLSRGLRYYYDKNIIHKTAGKRYVYRFVCDLQSLLGYTPEELHAMLDVKPDADE
notes: also called Ets1 dimer; source: cloned, expressed and purified according to reported protocols [36]
